Assay [1] has as its target puf6ΔDE-myc (S. cerevisiae) (UniProt Q04373). The assay can be described thus: co-IP; anti-c-myc antibody (9E10) and protein-A agarose beads on yeast extract, 4 °C, IP buffer (20 mM Tris pH 7.5, 50 mM NaCl, 6 mM MgCl2, 10% glycerol); Western blotting. A general note: In western blotting, separated proteins are transferred to a membrane and probed.
The target in the next assay is Tif6-TAP (S. cerevisiae) (UniProt Q12522). As to the kind of experiment: co-IP; Tif6-TAP immunoprecipitated from yeast; Puf6 mutants examined.

Sequences of proteins named here, by UniProt entry; tags and fusion partners are left off.
UniProt Q12522: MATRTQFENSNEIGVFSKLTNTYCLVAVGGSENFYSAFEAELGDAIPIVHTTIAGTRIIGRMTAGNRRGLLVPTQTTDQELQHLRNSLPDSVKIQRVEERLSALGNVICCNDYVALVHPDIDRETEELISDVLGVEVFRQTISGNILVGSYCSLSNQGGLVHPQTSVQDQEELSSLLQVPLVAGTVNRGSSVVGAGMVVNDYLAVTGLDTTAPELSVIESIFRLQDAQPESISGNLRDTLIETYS
UniProt P0CX25: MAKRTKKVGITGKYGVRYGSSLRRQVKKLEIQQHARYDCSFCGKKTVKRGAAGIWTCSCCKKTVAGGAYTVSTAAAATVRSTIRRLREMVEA

Results are given in words; binding and its absence hold for the method and conditions named. Binding seen in cells or lysates may run through a third protein. Binding calls can cover weak binding; strength is not graded here.

For the substance Rpl43B-HA (from UniProt P0CX25 1-92), in assay [1], the binding result is recorded as “binds”.
In the case of puf6ΔDE-myc (from UniProt Q04373), the binding result with Tif6-TAP (S. cerevisiae) is “binds”.

The values are drawn from article PMC6928942.
